In patent publication US20210238279A1 (Johns Hopkins, published 2021):
Results are given in words; binding and its absence hold for the method and conditions named. Some binding calls cover weakened binding; strength is not graded here. For some of these results: Sequences can lack the tags named with a protein.

Experiments:
[1] = biological target: T1, human ZnT8 over-expressed in HEK293 cells (human) (UniProt Q8IWU4); experiment: flow cytometry of fixed and permeabilized HEK293 cells, serial dilutions of the antibody
T1 sequence (looked up): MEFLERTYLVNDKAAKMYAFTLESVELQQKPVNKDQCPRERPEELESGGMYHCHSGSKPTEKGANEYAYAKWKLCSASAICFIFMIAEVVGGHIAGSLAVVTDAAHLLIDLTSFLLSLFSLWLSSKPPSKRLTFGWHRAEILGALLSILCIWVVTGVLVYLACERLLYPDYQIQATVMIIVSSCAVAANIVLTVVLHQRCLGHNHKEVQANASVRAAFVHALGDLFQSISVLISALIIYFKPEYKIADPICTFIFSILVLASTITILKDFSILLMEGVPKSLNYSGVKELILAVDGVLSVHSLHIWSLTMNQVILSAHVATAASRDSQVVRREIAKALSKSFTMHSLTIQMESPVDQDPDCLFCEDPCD

[2] = biological target: T1, human ZnT8 over-expressed in HEK293 cells (human); experiment: HTRF, terbium cryptate-mAb20 and d2-mAb39 on lysates of HEK293 cells over-expressing human ZnT8; linear response up to 50 ng/mL
[3] = biological target: T2, endogenous human ZnT8 in EndoC-βH cells (human) (UniProt Q8IWU4); experiment: immunoblot of EndoC-βH lysate
T2 sequence (looked up): T1 sequence (looked up)

[4] = biological target: T1, human ZnT8 over-expressed in HEK293 cells (human); experiment: immunofluorescence, confocal microscopy of fixed and permeabilized HEK293 cells
[5] = biological target: T1, human ZnT8 over-expressed in HEK293 cells (human); experiment: confocal immunofluorescence on fixed, permeabilized HEK293 cells stably expressing human ZnT8; no staining of parental cells
[6] = biological target: T1, human ZnT8 over-expressed in HEK293 cells (human); experiment: discussion of the flow cytometry result
[7] = biological target: T3, human ZnT8 with C-terminal FLAG tag (human) (UniProt Q8IWU4); experiment: immunoblot of HEK293 lysates over-expressing FLAG-tagged ZnT homologs
T3 sequence (looked up): T1 sequence (looked up)

[8] = biological target: T1, human ZnT8 over-expressed in HEK293 cells (human); experiment: flow cytometry of fixed and permeabilized HEK293 cells, mean fluorescence against antibody concentration
[9] = biological target: T2, endogenous human ZnT8 in EndoC-βH cells (human); experiment: immunoblot of EndoC-betaH cell lysate
[10] = biological target: T1, human ZnT8 over-expressed in HEK293 cells (human); experiment: HTRF (FRET) between terbium-cryptate mAb20 and d2-labelled mAb39 bound to the same ZnT8, dilutions of cell lysate; the ZnT8 concentration is varied

Measured: binding

B1: mAb20 (antibody, V domains shown)
VH: QIQLVQSGPELKKPGETVKISCKASGYIFTNYPMHWVKQAPGKGLKWMGWINTYSGVPTHADDFKGRFAFSLETSANSAFLQINNLKNEDTATYFCTRSRITPTGGYAMDYWGQGTSVTVSS
VL: DVVMTQTPLSLPVSLGDQASISCRSSQSLVHSNGNTYLHWYLQKPGQSPNLLISKVSNRFSGVPERFSGSGSGTDFTLKISRVEAEDLGVYFCSQNTHVPWTFGGGTKLEIKR
notes: Mouse hybridoma mAb purified on protein A/G; In some assays it was labelled with Alexa Fluor 488 or terbium cryptate; also called monoclonal antibody mAb20; anti-ZnT8 mAb20
binds: all assays above
